For seven molecules, T/C results are on record in PubChem BioAssay AID328 (DTP/NCI, 2004).

The list is a part of this screen's results and no random one: it covers a few groups of compounds. Other doses and runs of a compound may be missing. T/C gives the treated animals as a percentage of the vehicle group. Where survival is the endpoint, the PubChem record calls one and a half times the control and up active, and a quarter to a half above the control has no call in these data; cut-offs in other NCI protocols can differ. Some T/C values are marked as having no survivor count here; that says nothing about deaths at the dose. Schedule codes are those of the source, taken here to give the interval after Q, in days (D) or hours (H), and the number of doses after X. Additions like (4×) give the number of equal values in this list. Some entries were tested several times; the values are given in rising order.

This experiment concerns BDF1 mice, P388 leukemia ip, median survival T/C. In words: NCI In Vivo Anticancer Drug Screen. Data for tumor model P388 Leukemia (intraperitoneal) in B6D2F1 (BDF1) mice. The conditions noted are these: T/C endpoint: median survival time, higher T/C = longer survival. As to the method: The antitumor activity of compounds was measured in mice bearing transplantable tumors. Survival or tumor size were measured and the results are expressed as the measurement made in the treated group (T) divided by the measurement made in the vehicle treated control group (C). The tumor model used in this assay is P388 Leukemia (intraperitoneal) in B6D2F1 (BDF1) mice

Turning to `S=P(Cl)(Cl)N(CCCl)CCCl`, the T/C is 104 % of control [survivor count not shown] (dose: 6.25 mg/kg/injection, schedule: Q01DX009 (ip), vehicle: saline with Tween-80); 112 % of control [survivor count not shown] (dose: 12.5 mg/kg/injection, schedule: Q01DX009 (ip), vehicle: saline with Tween-80); 104 % of control [survivor count not shown] (dose: 25.0 mg/kg/injection, schedule: Q01DX009 (ip), vehicle: saline with Tween-80); 108 % of control [survivor count not shown] (dose: 50.0 mg/kg/injection, schedule: Q01DX009 (ip), vehicle: saline with Tween-80); 100 % of control [survivor count not shown] (dose: 100.0 mg/kg/injection, schedule: Q04DX003 (ip), vehicle: other).

As for `O=C(CCN(CCCl)CCCl)c1cccc([N+](=O)[O-])c1`, the T/C was 153 % of control [survivor count not shown] (dose: 3.0 mg/kg/injection, schedule: Q01DX009 (ip), vehicle: Klucel (hydroxypropylcellulose) (HPC)); 163 % of control [survivor count not shown] (dose: 6.0 mg/kg/injection, schedule: Q01DX009 (ip), vehicle: Klucel (hydroxypropylcellulose) (HPC)); 203 % of control [survivor count not shown] (dose: 12.0 mg/kg/injection, schedule: Q01DX009 (ip), vehicle: Klucel (hydroxypropylcellulose) (HPC)); 268 % of control [survivor count not shown] (dose: 12.5 mg/kg/injection, schedule: Q01DX009 (ip), vehicle: carboxymethylcellulose (CMC)); 89 % of control [survivor count not shown] (dose: 25.0 mg/kg/injection, schedule: Q01DX009 (ip), vehicle: carboxymethylcellulose (CMC)).

Turning to `ClCCN1CCN(CCCl)CC1`, the T/C runs as follows: (dose: 0.25 mg/kg/injection, schedule: Q01DX009 (ip), vehicle: saline) 131 % of control [survivor count not shown]; (dose: 0.5 mg/kg/injection, schedule: Q01DX009 (ip), vehicle: saline) 109 [survivor count not shown] and 200 % of control [survivor count not shown]; (dose: 0.5 mg/kg/injection, schedule: Q04DX003 (ip), vehicle: saline) 116 [survivor count not shown] and 209 % of control [survivor count not shown]; (dose: 1.0 mg/kg/injection, schedule: Q01DX009 (ip), vehicle: saline) 104 [survivor count not shown] and 240 % of control [survivor count not shown]; (dose: 1.0 mg/kg/injection, schedule: Q04DX003 (ip), vehicle: saline) 170 [survivor count not shown] and 231 % of control [survivor count not shown]; (dose: 2.0 mg/kg/injection, schedule: Q04DX003 (ip), vehicle: saline) 200 % of control [survivor count not shown].

Turning to `COc1cc(CN(CCCl)CCCl)cc(OC)c1OC`, the T/C is 104 % of control [survivor count not shown] (dose: 0.31 mg/kg/injection, schedule: Q04DX003 (ip), vehicle: saline); 128 % of control [survivor count not shown] (dose: 0.62 mg/kg/injection, schedule: Q01DX009 (ip), vehicle: saline); 90 % of control [survivor count not shown] (dose: 0.62 mg/kg/injection, schedule: Q04DX003 (ip), vehicle: saline); 152 % of control [survivor count not shown] (dose: 1.25 mg/kg/injection, schedule: Q01DX009 (ip), vehicle: saline); 118 % of control [survivor count not shown] (dose: 1.25 mg/kg/injection, schedule: Q04DX003 (ip), vehicle: saline); 160 % of control [survivor count not shown] (dose: 2.5 mg/kg/injection, schedule: Q01DX009 (ip), vehicle: saline). Also, the T/C is 127 % of control [survivor count not shown] (dose: 2.5 mg/kg/injection, schedule: Q04DX003 (ip), vehicle: saline); 215 % of control [survivor count not shown] (dose: 5.0 mg/kg/injection, schedule: Q01DX009 (ip), vehicle: saline); 187 % of control [survivor count not shown] (dose: 5.0 mg/kg/injection, schedule: Q04DX003 (ip), vehicle: saline); 170 % of control [survivor count not shown] (dose: 6.7 mg/kg/injection, schedule: Q04DX003 (ip), vehicle: saline); 175 [survivor count not shown], 183 [survivor count not shown], 200 % of control [survivor count not shown] (dose: 10.0 mg/kg/injection, schedule: Q04DX003 (ip), vehicle: saline).

As for `CN(/N=C\c1ccc(N(CCCl)CCCl)cc1)C(=N)N`, the T/C by setting is: (dose: 11.1 mg/kg/injection, schedule: Q01DX010 (ip), vehicle: carboxymethylcellulose (CMC)) 155 % of control [survivor count not shown]; (dose: 11.1 mg/kg/injection, schedule: Q01DX010 (ip), vehicle: steroid suspending solution) 160 % of control [survivor count not shown]; (dose: 16.6 mg/kg/injection, schedule: Q01DX010 (ip), vehicle: carboxymethylcellulose (CMC)) 160 % of control [survivor count not shown]; (dose: 16.6 mg/kg/injection, schedule: Q01DX010 (ip), vehicle: steroid suspending solution) 175 % of control [survivor count not shown]; (dose: 25.0 mg/kg/injection, schedule: Q01DX010 (ip), vehicle: carboxymethylcellulose (CMC)) 160 % of control [survivor count not shown]; (dose: 25.0 mg/kg/injection, schedule: Q01DX010 (ip), vehicle: steroid suspending solution) 170 % of control [survivor count not shown]. The T/C runs as follows: (dose: 37.5 mg/kg/injection, schedule: Q01DX010 (ip), vehicle: carboxymethylcellulose (CMC)) 160 % of control [survivor count not shown]; (dose: 37.5 mg/kg/injection, schedule: Q01DX010 (ip), vehicle: steroid suspending solution) 150 % of control [survivor count not shown].

Turning to `NC(Cc1ccccc1N(CCCl)CCCl)C(=O)O` (stereo not drawn), the T/C was 200 [survivor count not shown] and 227 % of control [survivor count not shown] (dose: 0.25 mg/kg/injection, schedule: Q01DX010 (ip), vehicle: saline); 204 [survivor count not shown] and 268 % of control [survivor count not shown] (dose: 0.5 mg/kg/injection, schedule: Q01DX010 (ip), vehicle: saline); 300 % of control [survivor count not shown] (2×) (dose: 1.0 mg/kg/injection, schedule: Q01DX010 (ip), vehicle: saline); 113 [survivor count not shown] and 133 % of control [survivor count not shown] (dose: 2.0 mg/kg/injection, schedule: Q01DX010 (ip), vehicle: saline).

Regarding `OCC#CCN(CCBr)CCBr`, the T/C reads like this: (dose: 0.39 mg/kg/injection, schedule: Q01DX009 (ip), vehicle: saline with Tween-80) 163 % of control [survivor count not shown]; (dose: 0.78 mg/kg/injection, schedule: Q01DX009 (ip), vehicle: saline with Tween-80) 199 % of control [survivor count not shown]; (dose: 1.56 mg/kg/injection, schedule: Q01DX009 (ip), vehicle: saline with Tween-80) 192 [survivor count not shown] and 265 % of control [survivor count not shown]; (dose: 3.13 mg/kg/injection, schedule: Q01DX009 (ip), vehicle: saline with Tween-80) 92 % of control [survivor count not shown].
